Assay results: US9061070B2, “Treating stroke and other diseases without inhibiting N-type calcium channels” (NoNO, Inc., priority 2007, dated 2015)
At least one compound was matched to its structure with a doubt left.

Sequences of proteins named here, by UniProt entry; tags and fusion partners are left off.
UniProt O55017, whole entry: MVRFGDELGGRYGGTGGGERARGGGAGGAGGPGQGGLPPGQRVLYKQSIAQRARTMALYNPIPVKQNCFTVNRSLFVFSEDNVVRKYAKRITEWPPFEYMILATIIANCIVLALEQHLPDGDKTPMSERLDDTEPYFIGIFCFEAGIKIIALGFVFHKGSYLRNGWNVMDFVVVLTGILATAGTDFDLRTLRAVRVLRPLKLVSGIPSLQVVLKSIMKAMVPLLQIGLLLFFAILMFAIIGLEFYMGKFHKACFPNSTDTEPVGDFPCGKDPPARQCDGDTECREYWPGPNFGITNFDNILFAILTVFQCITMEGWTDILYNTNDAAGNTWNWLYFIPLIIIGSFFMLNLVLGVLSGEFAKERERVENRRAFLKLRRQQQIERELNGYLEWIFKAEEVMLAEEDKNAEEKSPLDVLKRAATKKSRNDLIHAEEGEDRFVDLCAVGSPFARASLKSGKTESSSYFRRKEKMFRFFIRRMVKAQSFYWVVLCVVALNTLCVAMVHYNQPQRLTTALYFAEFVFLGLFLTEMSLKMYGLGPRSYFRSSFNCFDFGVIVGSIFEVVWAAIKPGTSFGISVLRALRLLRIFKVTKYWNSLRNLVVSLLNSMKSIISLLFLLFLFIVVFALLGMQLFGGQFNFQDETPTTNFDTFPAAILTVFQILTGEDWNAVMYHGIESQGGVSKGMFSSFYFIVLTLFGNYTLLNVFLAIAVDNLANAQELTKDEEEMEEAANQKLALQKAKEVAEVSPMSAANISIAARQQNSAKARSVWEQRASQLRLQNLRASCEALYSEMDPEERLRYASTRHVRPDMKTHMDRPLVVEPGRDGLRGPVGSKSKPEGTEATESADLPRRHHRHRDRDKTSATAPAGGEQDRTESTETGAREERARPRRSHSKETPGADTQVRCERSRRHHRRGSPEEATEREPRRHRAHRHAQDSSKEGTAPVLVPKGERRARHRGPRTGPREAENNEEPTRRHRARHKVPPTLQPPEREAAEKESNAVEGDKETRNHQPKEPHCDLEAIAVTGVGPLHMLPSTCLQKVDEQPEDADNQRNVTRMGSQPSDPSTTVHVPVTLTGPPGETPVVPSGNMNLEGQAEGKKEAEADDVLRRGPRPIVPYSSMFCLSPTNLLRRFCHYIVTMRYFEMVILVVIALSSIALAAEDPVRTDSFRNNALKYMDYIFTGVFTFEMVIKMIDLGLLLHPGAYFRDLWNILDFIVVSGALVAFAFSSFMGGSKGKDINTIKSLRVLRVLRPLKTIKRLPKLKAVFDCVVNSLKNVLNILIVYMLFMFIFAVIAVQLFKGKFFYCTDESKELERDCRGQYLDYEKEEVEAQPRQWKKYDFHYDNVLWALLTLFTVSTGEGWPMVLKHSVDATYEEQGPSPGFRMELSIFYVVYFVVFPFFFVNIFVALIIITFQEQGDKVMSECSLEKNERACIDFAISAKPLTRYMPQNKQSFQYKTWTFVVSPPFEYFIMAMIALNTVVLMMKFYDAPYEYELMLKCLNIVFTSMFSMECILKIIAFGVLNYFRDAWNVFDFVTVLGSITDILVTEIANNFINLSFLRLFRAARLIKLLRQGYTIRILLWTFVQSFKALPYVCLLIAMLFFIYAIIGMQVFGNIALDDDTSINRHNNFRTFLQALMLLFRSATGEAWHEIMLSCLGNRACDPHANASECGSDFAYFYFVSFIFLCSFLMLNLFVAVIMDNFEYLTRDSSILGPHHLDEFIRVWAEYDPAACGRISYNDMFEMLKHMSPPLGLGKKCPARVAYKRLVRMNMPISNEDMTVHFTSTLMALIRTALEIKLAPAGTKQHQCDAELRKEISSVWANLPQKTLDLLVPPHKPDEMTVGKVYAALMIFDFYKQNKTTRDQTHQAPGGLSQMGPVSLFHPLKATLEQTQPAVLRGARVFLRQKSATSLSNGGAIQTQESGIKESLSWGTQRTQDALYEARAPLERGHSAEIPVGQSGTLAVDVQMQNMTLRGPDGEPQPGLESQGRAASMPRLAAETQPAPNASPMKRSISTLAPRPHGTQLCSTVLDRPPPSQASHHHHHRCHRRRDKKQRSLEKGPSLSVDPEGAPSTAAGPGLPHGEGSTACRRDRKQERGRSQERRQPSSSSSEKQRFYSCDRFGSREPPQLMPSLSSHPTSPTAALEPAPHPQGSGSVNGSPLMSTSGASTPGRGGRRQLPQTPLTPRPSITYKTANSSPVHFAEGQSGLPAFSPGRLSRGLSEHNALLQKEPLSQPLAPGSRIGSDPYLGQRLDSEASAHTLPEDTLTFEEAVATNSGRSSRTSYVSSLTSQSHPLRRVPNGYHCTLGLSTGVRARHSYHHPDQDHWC

Molecular target: N-type calcium channels (Mus musculus, UniProt O55017)
Assay: Whole-cell patch clamp recordings of calcium currents in dorsal root ganglion neurons
Type: cell-based, Swiss mice

Q: Which “effect on the size of the Ca2+ current in presence (100 μM intracellular) or absence of Tat-NR2B9c” value does the source give for `COC(=O)C1=C(C)NC(C)=C(C(=O)OC)C1c1ccccc1[N+](=O)[O-]` [nifedipine, reference compound] here?
A: does significantly affect
